Data reported in PMC11139282, “Structure and activity of the septal peptidoglycan hydrolysis machinery crucial for bacterial cell division” (PLOS Biology, 2024).
No constants are given. Whether binding was seen depends on the method and setting. For some of these results: Binding seen in cells or lysates may run through a third protein. Some results given as binding are weak or reduced against the parent protein; the word gives no strength. For some of these results: Sequences can lack the tags named with a protein. Each block holds one binder with its values, some of them ahead of it.

Assays:
[1] = molecular target: T1, FtsX^Δ4–18 (E. coli K-12) (UniProt P0AC30); experiment: cryo-EM structure; ATP-bound FtsE^E163QX^Δ4-18-EnvC(35-420) reconstituted in PMAL-C8, about 1 mg/ml, 3.11 Å; both purified
T1 sequence: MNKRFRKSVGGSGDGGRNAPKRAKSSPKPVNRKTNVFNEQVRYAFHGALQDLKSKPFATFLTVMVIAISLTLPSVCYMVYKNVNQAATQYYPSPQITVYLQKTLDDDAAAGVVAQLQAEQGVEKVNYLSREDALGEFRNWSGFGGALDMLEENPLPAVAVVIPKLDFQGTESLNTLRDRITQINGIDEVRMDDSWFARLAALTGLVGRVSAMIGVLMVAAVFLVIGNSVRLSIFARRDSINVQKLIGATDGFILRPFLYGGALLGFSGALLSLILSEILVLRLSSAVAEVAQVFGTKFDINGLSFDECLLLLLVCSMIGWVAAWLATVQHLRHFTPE

[2] = molecular target: T1, FtsX^Δ4–18 (E. coli K-12); experiment: cryo-EM structure; ATP-bound FtsE^E163QX^Δ4-18 in PMAL-C8, about 1 mg/ml, 3.05 Å; both purified
[3] = molecular target: T2, FtsX (co-expressed with FtsE^E163Q) (E. coli K-12) (UniProt P0AC30); experiment: co-purification (HisTrap + SEC); FtsE^E163Q and FtsX co-expressed in E. coli C43(DE3); membranes solubilised in 1% DDM with 1 mM ATP; HisTrap, SEC, TEV cleavage, SEC; 20 mM Tris pH 8.0, 300 mM NaCl
T2 sequence: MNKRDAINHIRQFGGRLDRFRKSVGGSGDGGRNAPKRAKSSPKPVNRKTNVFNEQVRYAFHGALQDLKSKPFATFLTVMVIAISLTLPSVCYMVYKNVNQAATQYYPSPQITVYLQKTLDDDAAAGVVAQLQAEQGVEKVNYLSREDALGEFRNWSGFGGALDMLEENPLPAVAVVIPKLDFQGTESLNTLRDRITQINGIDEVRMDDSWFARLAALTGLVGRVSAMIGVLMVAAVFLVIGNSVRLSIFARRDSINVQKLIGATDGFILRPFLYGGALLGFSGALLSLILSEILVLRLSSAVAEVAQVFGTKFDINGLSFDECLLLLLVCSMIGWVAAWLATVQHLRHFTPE

[4] = molecular target: T3, FtsX^I261D (E. coli K-12) (UniProt P0AC30); experiment: co-sedimentation; membrane fraction (140,000 x g) of E. coli WZC1 co-expressing Flag-FtsE and FtsX-His8-Myc or its mutants; western blot with anti-Flag and anti-Myc
T3 sequence: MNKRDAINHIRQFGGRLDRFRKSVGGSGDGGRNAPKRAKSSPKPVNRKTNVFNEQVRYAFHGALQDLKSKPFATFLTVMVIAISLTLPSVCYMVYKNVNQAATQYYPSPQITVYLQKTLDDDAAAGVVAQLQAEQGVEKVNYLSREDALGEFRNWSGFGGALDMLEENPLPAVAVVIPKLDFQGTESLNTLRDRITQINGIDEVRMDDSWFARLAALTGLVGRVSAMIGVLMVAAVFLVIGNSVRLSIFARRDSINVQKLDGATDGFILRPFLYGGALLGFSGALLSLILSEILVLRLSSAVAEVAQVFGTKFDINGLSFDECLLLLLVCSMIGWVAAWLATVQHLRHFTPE

[5] = molecular target: T4, FtsX(His&Myc) (E. coli K-12) (UniProt P0AC30); experiment: as above
T4 sequence: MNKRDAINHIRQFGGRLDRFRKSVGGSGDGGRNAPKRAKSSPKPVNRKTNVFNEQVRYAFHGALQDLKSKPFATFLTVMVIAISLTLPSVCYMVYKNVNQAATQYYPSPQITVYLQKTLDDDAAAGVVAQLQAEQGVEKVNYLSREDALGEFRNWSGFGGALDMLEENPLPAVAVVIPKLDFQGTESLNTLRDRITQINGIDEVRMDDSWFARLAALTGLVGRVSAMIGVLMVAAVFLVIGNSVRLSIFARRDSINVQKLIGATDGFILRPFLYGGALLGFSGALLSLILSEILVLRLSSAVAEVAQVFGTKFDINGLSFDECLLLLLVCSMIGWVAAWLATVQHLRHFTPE

EnvC_(35-420) [6] = molecular target: T5, EnvC_(35-420) (E. coli K-12, UniProt P37690 35-419); experiment: cryo-EM structure; ATP-bound FtsE^E163QX^Δ4-18-EnvC(35-420) reconstituted in PMAL-C8, about 1 mg/ml, 3.11 Å; both purified
T5 construct: Only part of the coiled-coil domain is modelled in the cryo-EM structure; also called ecEnvC; source: E. coli C43(DE3), purified (Ni-NTA, SEC, TEV, Ni-NTA, SEC); not shown: His8, N-terminal, cleaved; SUMO, N-terminal, cleaved; Strep tag II, C-terminal, kept
T5 sequence (looked up): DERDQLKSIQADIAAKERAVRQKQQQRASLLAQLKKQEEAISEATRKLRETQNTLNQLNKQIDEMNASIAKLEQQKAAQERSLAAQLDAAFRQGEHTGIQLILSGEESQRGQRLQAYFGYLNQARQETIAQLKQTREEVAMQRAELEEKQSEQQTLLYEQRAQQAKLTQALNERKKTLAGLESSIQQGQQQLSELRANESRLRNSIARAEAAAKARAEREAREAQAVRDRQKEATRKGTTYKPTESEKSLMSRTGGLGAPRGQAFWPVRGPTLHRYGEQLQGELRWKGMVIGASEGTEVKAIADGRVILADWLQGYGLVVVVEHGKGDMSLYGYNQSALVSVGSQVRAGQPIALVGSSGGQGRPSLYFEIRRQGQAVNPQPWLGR

EnvC_(35-420) [7] = molecular target: T5, EnvC_(35-420); experiment: pull-down + SEC; purified FtsE^E163QX or FtsX incubated with EnvC(35-420)-Strep at a molar ratio of 1:1.5, moved into PMAL-C8; Strep column to remove unbound FtsEX or FtsX, then Superdex 200 in 20 mM Tris pH 8.0, 300 mM NaCl (1 mM ATP for FtsE^E163QX); peak validated by SDS-PAGE; both purified

B2: FtsE(Flag) (protein, UniProt P0A9R7 1-222)
chain: MIRFEHVSKAYLGGRQALQGVTFHMQPGEMAFLTGHSGAGKSTLLKLICGIERPSAGKIWFSGHDITRLKNREVPFLRRQIGMIFQDHHLLMDRTVYDNVAIPLIIAGASGDDIRRRVSAALDKVGLLDKAKNFPIQLSGGEQQRVGIARAVVNKPAVLLADEPTGNLDDALSEGILRLFEEFNRVGVTVLMATHDINLISRRSYRMLTLSDGHLHGGVGHE
- binding [4]: binds weakly
- binding [5]: binds

B4: FtsE^E163QX complex (complex, UniProt P0A9R7 1-222; P0AC30 1-352)
chain 1: MIRFEHVSKAYLGGRQALQGVTFHMQPGEMAFLTGHSGAGKSTLLKLICGIERPSAGKIWFSGHDITRLKNREVPFLRRQIGMIFQDHHLLMDRTVYDNVAIPLIIAGASGDDIRRRVSAALDKVGLLDKAKNFPIQLSGGEQQRVGIARAVVNKPAVLLADQPTGNLDDALSEGILRLFEEFNRVGVTVLMATHDINLISRRSYRMLTLSDGHLHGGVGHE
chain 2: MNKRDAINHIRQFGGRLDRFRKSVGGSGDGGRNAPKRAKSSPKPVNRKTNVFNEQVRYAFHGALQDLKSKPFATFLTVMVIAISLTLPSVCYMVYKNVNQAATQYYPSPQITVYLQKTLDDDAAAGVVAQLQAEQGVEKVNYLSREDALGEFRNWSGFGGALDMLEENPLPAVAVVIPKLDFQGTESLNTLRDRITQINGIDEVRMDDSWFARLAALTGLVGRVSAMIGVLMVAAVFLVIGNSVRLSIFARRDSINVQKLIGATDGFILRPFLYGGALLGFSGALLSLILSEILVLRLSSAVAEVAQVFGTKFDINGLSFDECLLLLLVCSMIGWVAAWLATVQHLRHFTPE
- binding (EnvC_(35-420) [7]): binds

More lines, now with the values ahead:

- binding [1]: binds
- binding [2]: binds
- binding [3]: binds
B1: FtsE^E163Q (natural protein, E. coli K-12, UniProt P0A9R7 1-222, looked up)
chain: MIRFEHVSKAYLGGRQALQGVTFHMQPGEMAFLTGHSGAGKSTLLKLICGIERPSAGKIWFSGHDITRLKNREVPFLRRQIGMIFQDHHLLMDRTVYDNVAIPLIIAGASGDDIRRRVSAALDKVGLLDKAKNFPIQLSGGEQQRVGIARAVVNKPAVLLADQPTGNLDDALSEGILRLFEEFNRVGVTVLMATHDINLISRRSYRMLTLSDGHLHGGVGHE
notes: The pSUMO plasmid adds an N-terminal His8-SUMO-TEV site, removed by TEV; Two copies stand in the FtsEX complex; also called ecFtsE^E163Q; not shown: His8 (chain inferred: first gene of pSUMO-ftsEX), N-terminal, cleaved; SUMO (chain inferred: first gene of pSUMO-ftsEX), N-terminal, cleaved

- binding (EnvC_(35-420) [6]): binds
B3: FtsE^E163QX^Δ4–18 complex (complex, UniProt P0A9R7 1-222; P0AC30 1-352)
chain 1: MIRFEHVSKAYLGGRQALQGVTFHMQPGEMAFLTGHSGAGKSTLLKLICGIERPSAGKIWFSGHDITRLKNREVPFLRRQIGMIFQDHHLLMDRTVYDNVAIPLIIAGASGDDIRRRVSAALDKVGLLDKAKNFPIQLSGGEQQRVGIARAVVNKPAVLLADQPTGNLDDALSEGILRLFEEFNRVGVTVLMATHDINLISRRSYRMLTLSDGHLHGGVGHE
chain 2: MNKRFRKSVGGSGDGGRNAPKRAKSSPKPVNRKTNVFNEQVRYAFHGALQDLKSKPFATFLTVMVIAISLTLPSVCYMVYKNVNQAATQYYPSPQITVYLQKTLDDDAAAGVVAQLQAEQGVEKVNYLSREDALGEFRNWSGFGGALDMLEENPLPAVAVVIPKLDFQGTESLNTLRDRITQINGIDEVRMDDSWFARLAALTGLVGRVSAMIGVLMVAAVFLVIGNSVRLSIFARRDSINVQKLIGATDGFILRPFLYGGALLGFSGALLSLILSEILVLRLSSAVAEVAQVFGTKFDINGLSFDECLLLLLVCSMIGWVAAWLATVQHLRHFTPE
